Like-named read-outs stand apart in the source and are kept apart here. Results are given in words; binding and its absence hold for the method and conditions named. For some of these results: Binding seen in cells or lysates may run through a third protein. Some results given as binding are weak or reduced against the parent protein; the word gives no strength.
Assays:
[1] = biological target: FLAG-CLK1 S341A mutant (made in the kinase-dead K191R control) (human) (UniProt P49759); assay: co-IP
[2] = biological target: PPP1CC, catalytic subunit of PP1, in HeLa lysate (human (endogenous in HeLa)) (UniProt P36873); assay: co-IP
[3] = biological target: MBP-FLAG-PPP1CC-His (human) (UniProt P36873); assay: pull-down
[4] = biological target: MBP-FLAG-PPP1CC-His (human) (UniProt P36873); assay: pull-down; remark: listed apart in the source
[5] = biological target: MBP-FLAG-PPP1CC-His (human) (UniProt P36873); assay: pull-down; remark: listed apart in the source

The chains behind the UniProt entries cited, without tags or fusion partners. Where a name states a change or a piece, a line headed by the entry shows the natural chain unless it says otherwise.
UniProt P49759: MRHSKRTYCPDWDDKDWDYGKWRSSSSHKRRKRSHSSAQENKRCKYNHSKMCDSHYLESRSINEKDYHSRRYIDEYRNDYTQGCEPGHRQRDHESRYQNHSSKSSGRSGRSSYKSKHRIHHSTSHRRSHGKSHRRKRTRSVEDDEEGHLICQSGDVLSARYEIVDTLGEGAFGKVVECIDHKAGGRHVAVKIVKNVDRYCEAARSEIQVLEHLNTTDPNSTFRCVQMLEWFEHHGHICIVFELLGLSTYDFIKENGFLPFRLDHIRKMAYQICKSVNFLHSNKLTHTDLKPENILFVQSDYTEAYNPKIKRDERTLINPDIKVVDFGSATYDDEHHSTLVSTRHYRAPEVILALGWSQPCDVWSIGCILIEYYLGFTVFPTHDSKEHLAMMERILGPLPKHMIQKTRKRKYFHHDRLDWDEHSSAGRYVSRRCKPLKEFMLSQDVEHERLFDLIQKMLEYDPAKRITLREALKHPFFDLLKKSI
UniProt P36873: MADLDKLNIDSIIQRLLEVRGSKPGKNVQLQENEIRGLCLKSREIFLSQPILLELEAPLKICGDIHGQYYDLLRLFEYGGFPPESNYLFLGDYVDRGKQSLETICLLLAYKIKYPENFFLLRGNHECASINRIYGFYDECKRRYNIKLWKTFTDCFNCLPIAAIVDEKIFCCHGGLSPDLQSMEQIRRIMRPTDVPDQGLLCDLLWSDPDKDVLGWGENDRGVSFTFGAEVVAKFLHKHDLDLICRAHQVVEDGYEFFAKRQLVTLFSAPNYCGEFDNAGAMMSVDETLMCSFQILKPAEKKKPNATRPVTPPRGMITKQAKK
UniProt Q12972: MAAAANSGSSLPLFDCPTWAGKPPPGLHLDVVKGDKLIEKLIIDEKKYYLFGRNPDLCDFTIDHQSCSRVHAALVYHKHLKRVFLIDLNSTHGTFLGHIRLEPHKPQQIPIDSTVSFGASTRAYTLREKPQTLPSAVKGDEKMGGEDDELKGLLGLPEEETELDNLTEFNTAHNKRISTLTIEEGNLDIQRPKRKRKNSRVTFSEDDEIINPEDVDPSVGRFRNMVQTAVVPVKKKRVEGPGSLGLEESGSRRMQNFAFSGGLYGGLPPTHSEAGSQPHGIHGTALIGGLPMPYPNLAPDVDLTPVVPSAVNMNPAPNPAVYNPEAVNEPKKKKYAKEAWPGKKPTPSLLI
UniProt P41236: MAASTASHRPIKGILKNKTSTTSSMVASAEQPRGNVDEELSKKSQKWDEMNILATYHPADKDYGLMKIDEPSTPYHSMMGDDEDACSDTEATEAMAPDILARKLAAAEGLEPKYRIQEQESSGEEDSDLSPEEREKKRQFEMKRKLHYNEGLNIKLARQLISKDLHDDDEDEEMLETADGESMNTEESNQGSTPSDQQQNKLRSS

| Substance | binding [1] | binding [2] | binding [3] | binding [4] | binding [5] |
| --- | --- | --- | --- | --- | --- |
| PPP1CC, catalytic subunit of PP1, in HeLa lysate (from UniProt P36873 1-323) (enzyme) | binds | – | – | – | – |
| PPP1R8 in HeLa lysate (from UniProt Q12972 1-351) | – | binds | – | – | – |
| recombinant PPP1R2 (from UniProt P41236 1-205) | – | – | binds | binds | – |
| recombinant PPP1R8 (from UniProt Q12972 1-351) | – | – | binds | binds | binds |

Reference: paper doi:10.1101/2025.10.21.683800
